Measured values from US20020055173.

Sequences of proteins named here, by UniProt entry; tags and fusion partners are left off. Residues count along the entry.
UniProt P08047, 2-785: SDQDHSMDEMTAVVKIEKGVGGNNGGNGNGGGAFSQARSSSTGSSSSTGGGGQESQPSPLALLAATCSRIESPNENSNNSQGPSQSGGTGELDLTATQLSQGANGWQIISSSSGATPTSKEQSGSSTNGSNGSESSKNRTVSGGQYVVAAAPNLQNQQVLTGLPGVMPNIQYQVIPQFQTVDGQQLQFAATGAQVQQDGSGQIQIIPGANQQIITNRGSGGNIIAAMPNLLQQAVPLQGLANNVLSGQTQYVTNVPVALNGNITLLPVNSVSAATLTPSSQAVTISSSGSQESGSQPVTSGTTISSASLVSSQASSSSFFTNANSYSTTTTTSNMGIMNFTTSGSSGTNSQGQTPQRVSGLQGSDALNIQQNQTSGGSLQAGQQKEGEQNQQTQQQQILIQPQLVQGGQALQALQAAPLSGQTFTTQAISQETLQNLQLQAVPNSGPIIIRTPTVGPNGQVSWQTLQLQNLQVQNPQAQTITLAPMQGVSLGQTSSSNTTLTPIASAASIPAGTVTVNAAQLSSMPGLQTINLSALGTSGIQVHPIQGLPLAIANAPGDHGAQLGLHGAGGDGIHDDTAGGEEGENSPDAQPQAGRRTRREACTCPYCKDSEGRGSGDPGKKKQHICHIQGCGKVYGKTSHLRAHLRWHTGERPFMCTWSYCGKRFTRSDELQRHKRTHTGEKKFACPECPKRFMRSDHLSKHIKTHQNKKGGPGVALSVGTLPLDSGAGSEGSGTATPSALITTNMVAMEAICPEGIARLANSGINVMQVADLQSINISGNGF

How the values were obtained:
MAZ = molecular target: T1, MAZ (UniProt P56270); assay: footprint; settings: -18GC occupied at lower protein than -36GC; also -166 and weak -130 site; purified recombinant protein; protein details: prepared as in Parks and Shenk 1996; label: 32P end label at +47
T1 sequence (looked up, limits assumed): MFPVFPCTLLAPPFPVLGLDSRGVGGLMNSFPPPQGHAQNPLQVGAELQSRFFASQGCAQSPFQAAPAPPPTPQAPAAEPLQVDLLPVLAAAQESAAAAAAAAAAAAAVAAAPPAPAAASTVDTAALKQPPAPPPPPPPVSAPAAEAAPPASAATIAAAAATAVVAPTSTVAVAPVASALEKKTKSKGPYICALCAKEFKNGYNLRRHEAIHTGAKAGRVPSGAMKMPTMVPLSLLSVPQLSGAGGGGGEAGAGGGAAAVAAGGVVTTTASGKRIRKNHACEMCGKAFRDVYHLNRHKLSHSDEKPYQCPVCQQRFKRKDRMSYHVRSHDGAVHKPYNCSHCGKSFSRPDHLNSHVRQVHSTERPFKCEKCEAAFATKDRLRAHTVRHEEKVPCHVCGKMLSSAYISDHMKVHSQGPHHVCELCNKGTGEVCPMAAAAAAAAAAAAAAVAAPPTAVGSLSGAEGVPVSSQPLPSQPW

Sp1 = Sp1 (UniProt P08047); assay: footprint; settings: binds only -166 and -18GC, not -36GC; purified recombinant protein; protein details: Promega; label: 32P end label at +47

**Q.** Does “ACTCTGAGACAAAGGCTCGCGTCCAGGCCAGCACGAAGGAGGCTAAGTGGGAGGGGTAGCGGTCGTTGTCCACTAGGGGGTCCACTCGCTCCAGGGTGTGAAGACACATGTCGCCCTCTTCGGCATCAAGGAAGGTGATTGGTTTGTAGGTGTAGGCCACGTGACCGGGTGTTCCTGAAGGGGGGCTATAAAAGGGGGTGGGGGCGCGTTCGTCCTCACTCTCTTCCGC (double strand) [Ad5 MLP (-260 to +47 probe; printed sequence 229 nt)]” bind (MAZ)?
**A.** binds

**Q.** Does “ACTCTGAGACAAAGGCTCGCGTCCAGGCCAGCACGAAGGAGGCTAAGTGGGAGGGGTAGCGGTCGTTGTCCACTAGGGGGTCCACTCGCTCCAGGGTGTGAAGACACATGTCGCCCTCTTCGGCATCAAGGAAGGTGATTGGTTTGTAGGTGTAGGCCACGTGACCGGGTGTTCCTGAAGGGGGGCTATAAAAGGGGGTGGGGGCGCGTTCGTCCTCACTCTCTTCCGC (double strand) [Ad5 MLP (-260 to +47 probe; printed sequence 229 nt)]” bind (Sp1)?
**A.** binds

For some assays here: Where a protein sequence is shown, tags need not be part of it.
